According to paper PMC7819943, “Rice protein-binding microarrays: a tool to detect cis-acting elements near promoter regions in rice”:
Some of the results follow.

molecular target: T1, OsSMF1 (Oryza sativa, UniProt Q6ZLB0 1-436); assay: protein-binding microarray (RPBM); PBS, 2% BSA, 51.3 ng/ul salmon testes DNA, 50 uM zinc acetate, 200 nM TF, 25 C, 1 h; high values mean tight binding; details: protein: recombinant; tags: N-terminal polyhistidine and DsRed monomer fusion (pET32a); chain copies: 2; label: CyDye5-dUTP incorporated in the synthesized complementary strand; 3' TTTTT single-stranded linker to array surface; dsDNA, one strand shown
T1 sequence: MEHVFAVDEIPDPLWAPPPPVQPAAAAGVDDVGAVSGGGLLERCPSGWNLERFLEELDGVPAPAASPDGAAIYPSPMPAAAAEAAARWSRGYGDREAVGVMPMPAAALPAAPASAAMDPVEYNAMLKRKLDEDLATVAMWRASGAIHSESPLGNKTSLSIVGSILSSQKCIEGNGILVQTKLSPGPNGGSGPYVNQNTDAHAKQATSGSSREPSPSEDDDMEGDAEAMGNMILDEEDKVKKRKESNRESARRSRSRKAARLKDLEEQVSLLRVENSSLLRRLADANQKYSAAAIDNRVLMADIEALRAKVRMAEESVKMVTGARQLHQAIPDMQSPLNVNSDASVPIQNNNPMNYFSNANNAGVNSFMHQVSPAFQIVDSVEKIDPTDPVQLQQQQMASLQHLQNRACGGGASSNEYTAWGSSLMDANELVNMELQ
How it was run: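 Transcription factors were each fused at the N-terminus to a polyhistidine tag plus DsRed and expressed in E. coli BL21-CodonPlus before Ni–NTA purification. Binding to a double-stranded custom Agilent array was carried out with 200 nM protein at 25 °C for 1 h in PBS, 2% BSA, salmon testes DNA and 50 µM zinc acetate. The binding signal is per-feature fluorescence intensity, in arbitrary units, on an Axon 4000B scanner.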

Point of comparison: “AGCTTAAGATGAACTAAGGCTCACACGTGGATACCTTGGGCGGAGTCACCTAGTGCAG”, binding signal 10300 fluorescence intensity (a.u.). Against it:
- AATCTCACCCATCCACGTGTCCCCAGATCTCATCCCCATCCGGAGTCACCTAGTGCAG — higher, 18700 fluorescence intensity (a.u.)
- CCGTCCTCCTGCCACTGTGGTGGCTCGGTGCTGACGTGGCCGGAGTCACCTAGTGCAG — higher, 35600 fluorescence intensity (a.u.)
- CGTTGAATAAAAGCTTTGGAACCACACGTCCGACGCACGCCGGAGTCACCTAGTGCAG — lower, 3540 fluorescence intensity (a.u.)
- CTATGGGCTTCATTGTCGCGTAGAGTGGTGACTGGTCTTCCGGAGTCACCTAGTGCAG — lower, 3970 fluorescence intensity (a.u.)
- CAATTACCTTCTCCCCACCGCGGAGGGATTCACGTCATCGCGGAGTCACCTAGTGCAG — lower, 4240 fluorescence intensity (a.u.)
- AAGGCCCTAAACCTATTCAGGCTCTGTACACGTGGCGGCCCGGAGTCACCTAGTGCAG — lower, 7350 fluorescence intensity (a.u.)
- GCCTCCATAATGAATGTGGTGCCATGGTTCTTTACAGATACGGAGTCACCTAGTGCAG — lower, 4140 fluorescence intensity (a.u.)
- TTCGTTGGAGCTACAGCTACAGCTAGTCAGCTACCACGAACGGAGTCACCTAGTGCAG — lower, 5130 fluorescence intensity (a.u.)
- ATGTTTTATTTCCTCATCATACTTTCCTTTTAAGTTCGTGCGGAGTCACCTAGTGCAG — lower, 3660 fluorescence intensity (a.u.)
- GGAGTGGCGGGGTTGCGGCATTGGGAGCTGACGTGGCCGCCGGAGTCACCTAGTGCAG — higher, 25400 fluorescence intensity (a.u.)
- TCACAAGGCTCTCTGGAGCATTTGTGGCACACGTCTTGATCGGAGTCACCTAGTGCAG — lower, 3170 fluorescence intensity (a.u.)
- CCCCGCCCCGCCGGACCGCGCCCGCGCTGCCGCCGTGGCGCGGAGTCACCTAGTGCAG — lower, 5220 fluorescence intensity (a.u.)
- AGAACGTTGCCACGTGCCCACGTCAGCCAGAGTGCGTGTGCGGAGTCACCTAGTGCAG — higher, 17000 fluorescence intensity (a.u.)
- AACTAGCGGATTTATAAAGTGACTATGGGTGTGTTTAGTTCGGAGTCACCTAGTGCAG — lower, 3510 fluorescence intensity (a.u.)
- ATAGATTTCCGCCCAAAACCATCCACCTTTTGCCGCCTCCCGGAGTCACCTAGTGCAG — higher, 13500 fluorescence intensity (a.u.)
- CTTCTGATCCGTTTGTGTCAGAGCCAAATCTTCTTCTTCTCGGAGTCACCTAGTGCAG — lower, 3600 fluorescence intensity (a.u.)
- ATTTATATTCAGAGGAAGCTTATGCAGTTCTTTATCCTCCCGGAGTCACCTAGTGCAG — higher, 26700 fluorescence intensity (a.u.)
- GTTCCGGGCCAGCCCAACCAACGCGGGCCCCACGTCATTCCGGAGTCACCTAGTGCAG — higher, 13900 fluorescence intensity (a.u.)
- ATTCGTTATACTAGGTGACATCTCATCTAATATTTGTTTACGGAGTCACCTAGTGCAG — lower, 4270 fluorescence intensity (a.u.)
- GCCTTCTTCCTCGCCTGCGGCCGTCTCCGCCACCTCGACCCGGAGTCACCTAGTGCAG — lower, 4040 fluorescence intensity (a.u.)
- ATTCAAACACCACCATTCTGACACCGCGACGTGATCCCAGCGGAGTCACCTAGTGCAG — lower, 5870 fluorescence intensity (a.u.)
- CCGTCCTCCGGCCGCGGCGCGCGCCGGCAGCCGCGGCCGCCGGAGTCACCTAGTGCAG — lower, 4140 fluorescence intensity (a.u.)
- GCCCACCCTCCCTCCACGTGTCGCGCCTCCGACCGTCCGACGGAGTCACCTAGTGCAG — higher, 14000 fluorescence intensity (a.u.)
- CCTTGACAGTGCACACGCCAAAACCACCGCTAACTCCCACCGGAGTCACCTAGTGCAG — higher, 21000 fluorescence intensity (a.u.)
- CTCCGCGGGACGCGTGTCTCCGCTCCCACGCCGCTGTCTACGGAGTCACCTAGTGCAG — lower, 4460 fluorescence intensity (a.u.)
- GTACCAAATGAAAGTGAAACAAATGAAACAAAAGAAGATGCGGAGTCACCTAGTGCAG — lower, 3960 fluorescence intensity (a.u.)
- ATTACATGATAAAACATAAATAGTACTTTATGCGTCATAGCGGAGTCACCTAGTGCAG — lower, 5140 fluorescence intensity (a.u.)
- GTCGAAACAAATGGTAAGGGCAAAAGTGTCAAACCACCTACGGAGTCACCTAGTGCAG — lower, 4060 fluorescence intensity (a.u.)
- GTGAACAAATCAGCTTGTGTTGTTTATCACCAAGTCATTGCGGAGTCACCTAGTGCAG — higher, 20200 fluorescence intensity (a.u.)
- CACGAAAACTGAACTCCCTGCCACGGCCACCGTGTCAGCACGGAGTCACCTAGTGCAG — lower, 5570 fluorescence intensity (a.u.)
- GCACTTCAGCTTTTCTGATCTACTCACCATCATCATCAGCCGGAGTCACCTAGTGCAG — lower, 4130 fluorescence intensity (a.u.)
- GCCGAGAACGTAGTGCCGCGTGTAGATGACGCCCGTGGCCCGGAGTCACCTAGTGCAG — lower, 5490 fluorescence intensity (a.u.)
- GAAAGGAAAGAGAGAGGAAGCTGACGTGGCCACGCTGACACGGAGTCACCTAGTGCAG — higher, 16000 fluorescence intensity (a.u.)
- AGCGTCTTGCTATGTCCACCTCACGTACAGACAACACGATCGGAGTCACCTAGTGCAG — lower, 5640 fluorescence intensity (a.u.)
- GCTTGATATCGTACTACGTGGACCCTCATTCCAACGTACCCGGAGTCACCTAGTGCAG — lower, 3360 fluorescence intensity (a.u.)
- CTCCGGCTGATCTCGACGGCGCACGTCAGTCAGCGTATCTCGGAGTCACCTAGTGCAG — lower, 4250 fluorescence intensity (a.u.)
- GCGTCCATGGCCGCCGCCTCGTCCGCCGCGCGCCAGGCGGCGGAGTCACCTAGTGCAG — lower, 3850 fluorescence intensity (a.u.)
- TATGTGTGCTGTTAGCTGTGGACCTGACTTGGCCTGGTAACGGAGTCACCTAGTGCAG — lower, 3140 fluorescence intensity (a.u.)
- CTCCATGCGCTGACGTGACATTGCCACAGTGGTGCCTACGCGGAGTCACCTAGTGCAG — lower, 7290 fluorescence intensity (a.u.)
- AGTTCCATGCAATGCCACGTACTCCTCGCTACCTGCTGGGCGGAGTCACCTAGTGCAG — higher, 18000 fluorescence intensity (a.u.)
- ATGCGGCTGATGTGTATGTTTGACAACTTATTTGTGGATTCGGAGTCACCTAGTGCAG — lower, 6030 fluorescence intensity (a.u.)
